Experimental data taken from PubChem BioAssay AID743255 (National Center for Advancing Translational Sciences (NCATS), 2014).
The whole screen tested about 390,000 compounds, of which about 910 (0.23%) were called active. This list was built around the results that the source calls inconclusive (neither active nor inactive); the mix of calls is not that of the screen. Calls come from the whole dose curve; as a rule, active = well fitted inhibition curve with a large enough effect; inconclusive = small, poorly fitted or top-dose-only effect; inactive = no such curve, though single readings can be large or run the other way. Where the call is inconclusive, the potency comes from a doubtful curve fit.
% is set by controls: 0 for no effect and ±100 for the full control effect; potency is the fitted concentration of half-maximal effect.
Note: nearly all actives have a fitted effect of over 60% in size.

Amino acid sequences for entries named in this document (tags omitted). A change or cut given only in a name is not applied to a line headed by its entry.
UniProt O94782: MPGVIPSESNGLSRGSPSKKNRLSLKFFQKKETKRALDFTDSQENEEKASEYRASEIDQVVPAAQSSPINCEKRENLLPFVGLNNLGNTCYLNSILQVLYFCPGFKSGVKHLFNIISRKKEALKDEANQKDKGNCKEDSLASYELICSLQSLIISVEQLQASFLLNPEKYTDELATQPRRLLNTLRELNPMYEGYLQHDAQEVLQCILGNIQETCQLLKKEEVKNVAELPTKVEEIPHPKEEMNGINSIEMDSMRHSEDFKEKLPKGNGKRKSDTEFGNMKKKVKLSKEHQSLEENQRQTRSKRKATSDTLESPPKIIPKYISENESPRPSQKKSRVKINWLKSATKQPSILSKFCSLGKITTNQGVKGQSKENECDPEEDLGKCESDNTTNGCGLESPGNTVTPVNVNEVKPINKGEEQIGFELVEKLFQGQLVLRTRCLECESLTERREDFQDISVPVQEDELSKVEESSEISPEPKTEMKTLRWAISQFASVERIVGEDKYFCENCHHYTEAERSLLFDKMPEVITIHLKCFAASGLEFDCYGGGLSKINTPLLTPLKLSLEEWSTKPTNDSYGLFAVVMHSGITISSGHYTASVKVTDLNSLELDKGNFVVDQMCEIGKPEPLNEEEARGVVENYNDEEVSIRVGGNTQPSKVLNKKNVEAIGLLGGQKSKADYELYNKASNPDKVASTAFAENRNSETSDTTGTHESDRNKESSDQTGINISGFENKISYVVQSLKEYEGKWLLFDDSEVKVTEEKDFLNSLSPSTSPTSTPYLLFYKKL

The molecules below were run against Ubiquitin carboxyl-terminal hydrolase 1 (Homo sapiens) (UniProt O94782) (assay: Inhibitors of USP1/UAF1: Primary Screen). Conditions: recombinant USP1/UAF1, Ub-Rhodamine cleavage fluorescence; activity change, negative = inhibition: at 57.1 µM (top of the series).
Method in brief: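 In this screen, compounds sit with the deubiquitinase complex (1nM) for 15 min at room temperature before Ub-Rho is added at 150nM final. Fluorescence rise is then followed for 6 reads every 60 seconds.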
`C=C(CC1([C@@H](NP(=O)(c2ccccc2)c2ccccc2)[C@H]2C[C@@H]2CCCC)CC1)c1ccccc1` was tested, and the Potency was inconclusive: 39.8 µM [inhibitor, single point].
For `COc1ccc(-c2cc3cc(F)ccc3cn2)cc1`, the Potency was inconclusive: 11.2 µM [inhibitor, partial curve].
In the case of `C#CCN1C(=O)C(O)(CC(=O)c2ccc3c(c2)OCCO3)c2ccccc21` (stereo not given), the Potency is reported as inconclusive: 0.794 µM [inhibitor, full curve, poor fit].
In the case of `CN(C)CCCN(C(=O)c1ccc(S(=O)(=O)N(C)C2CCCCC2)cc1)c1nc2ccc(F)cc2s1`, the “activity change, negative = inhibition” value is reported as inactive: -19%.
With `COc1cccc(/C=C2\SC(=O)N(CC(=O)NC3CCS(=O)(=O)C3)C2=O)c1` (stereo not given) the “activity change, negative = inhibition” value was inactive: -22%.
In the case of `COc1ccccc1N1CCN(C(=O)c2cc(S(=O)(=O)N3CCC(C)CC3)cn2C)CC1`, the “activity change, negative = inhibition” value is reported as inactive: -22.8%.
With `C=C(C)c1cccc(C(C)(C)NC(=O)N2CCCC2)c1` the “activity change, negative = inhibition” value was inactive: -10.2%.
For `CCOc1ccc(N2C(=O)CC(Sc3nc4ccc(OCC)cc4s3)C2=O)cc1` (stereo not given), the “activity change, negative = inhibition” value was inactive: -19.4%.
In the case of `CCN(Cc1ccccc1)C(=O)c1nn(-c2ccc(OC)cc2)c(=O)c2c1c1ccccc1n2C`, the Potency is reported as inconclusive: 44.7 µM [inhibitor, single point].
With `CCOc1ccc(C(=O)NCC(c2ccco2)S(=O)(=O)c2cccs2)cc1` (stereo not given) the Potency was inconclusive: 282 µM [inhibitor, partial curve, poor fit].
In the case of `C#CCn1c(C2CC(=O)N(c3ccc(OCC)cc3)C2)nc2ccccc21` (stereo not given), the Potency is reported as inconclusive: 39.8 µM [inhibitor, single point].
For `[N-]=[N+]=NCCN1CCN(CCc2ccccc2)CCC1=O`, the Potency was inconclusive: 112 µM [inhibitor, partial curve, poor fit].
`O=C(CNc1cccc(C(F)(F)F)c1)N/N=C/c1cn(-c2ccccc2)nc1-c1ccccc1` was tested, and the “activity change, negative = inhibition” value was inactive: -1.71%.
`Cc1ccc2onc(CNC(=O)Nc3cc(F)ccc3F)c2c1` was tested, and the “activity change, negative = inhibition” value was inactive: -21.5%.
With `CC(C)Cn1c(=O)c2ccccc2n2c(CCC(=O)N3CCN(c4ccccc4)CC3)nnc12` the Potency was inconclusive: 0.251 µM [inhibitor, full curve, poor fit].
`COc1ccc(-c2nc(-c3ccc(Br)o3)no2)cc1OC` was tested, and the Potency was inconclusive: 0.112 µM [inhibitor, full curve, poor fit].
With `Cc1cccc(NC(=O)c2ccc(F)c(S(=O)(=O)N3CCC4(CC3)OCCO4)c2)c1` the Potency was inconclusive: 0.251 µM [inhibitor, full curve, poor fit].
In the case of `COc1ccc(OC)c(CNC(=O)c2nn(C)c3c2CSc2ccccc2-3)c1`, the “activity change, negative = inhibition” value is reported as inactive: -4.91%.
With `Cc1ccc(-c2nn(-c3cccc(F)c3)cc2CN(Cc2nccn2C)C(C)C)o1` the “activity change, negative = inhibition” value was inactive: -20.9%.
For `CCOc1ccc(NC(=O)c2ccc3c(c2)CCN3S(=O)(=O)c2ccc(Cl)cc2)cc1`, the Potency was inconclusive: 0.112 µM [inhibitor, full curve, poor fit].
For `CC(C)Oc1ccc(S(=O)(=O)N2CCOCC2)cc1NC(=O)C1COc2ccccc2O1` (stereo not given), the “activity change, negative = inhibition” value was inactive: -23%.
With `CCOc1cccc2sc(N3CCN(C(=O)C4CC4)CC3)nc12` the Potency was inconclusive: 0.398 µM [inhibitor, full curve, poor fit].
For `CCCn1cc(S(=O)(=O)c2ccc(CC)cc2)c(=O)c2cc(F)c(N(CC)CC)cc21`, the Potency was inconclusive: 7.94 µM [inhibitor, partial curve, poor fit].
With `CC(=O)Nc1cccc(/C(C)=N/NC(=O)c2cccc(S(=O)(=O)N3CCCC3)c2)c1` the Potency was inconclusive: 0.355 µM [inhibitor, full curve, poor fit].
For `O=C(CNCCc1ccccc1)N1CCc2ccccc2C1`, the Potency was inconclusive: 5.01 µM [inhibitor, full curve, poor fit].
In the case of `CCOc1ccc(S(=O)(=O)N2CCC(C(=O)OC(C)C(=O)N3CCOCC3)CC2)cc1` (stereo not given), the Potency is reported as inconclusive: 5.62 µM [inhibitor, full curve].
`O=C(CCCC(=O)NCc1ccc(F)cc1)NCc1ccc(F)cc1` was tested, and the Potency was inconclusive: 5.01 µM [inhibitor, partial curve].
`Cc1ccc(NC(=O)CCCc2nnc3n(C)c(=O)c4sccc4n23)cc1F` was tested, and the Potency was inconclusive: 6.31 µM [inhibitor, single point].
With `O=C(Cn1cnnn1)NCc1ccccc1` the activity change, negative = inhibition was inconclusive: -11.1% [inhibitor].
In the case of `COc1ccc(C2=NN(CCC(=O)NC3CCC(C)CC3)C(=O)CC2)cc1` (stereo not given), the Potency is reported as inconclusive: 50.1 µM [inhibitor, partial curve, poor fit].
`O=C(c1cccc(OC2CCN(Cc3ccc(F)cc3)CC2)c1)N1CCCC1` was tested, and the Potency was inconclusive: 31.6 µM [inhibitor, partial curve].
`COc1ccc(OC)c(/C=C2/Sc3ccccc3C2=O)c1` was tested, and the Potency was active: 28.2 µM.
`O=C(NCc1ccccc1)C1CCN(S(=O)(=O)c2ccc3c(c2)CCCN3C(=O)C2CCC2)CC1` was tested, and the Potency was inconclusive: 4.47 µM [inhibitor, single point].
In the case of `O=C(O)c1ccc2c(=O)n3c(nc2c1)/C(=C/c1ccc(F)cc1)CC3`, the Potency is reported as inconclusive: 39.8 µM [inhibitor, partial curve].
With `CC1N(C)c2cccc3cccc(c23)N1C` the Potency was inconclusive: 35.5 µM [inhibitor, single point].
`CSc1nc(-c2ccccc2)nc(N2CCOCC2)c1C(C)=O` was tested, and the Potency was inconclusive: 39.8 µM [inhibitor, partial curve].
`CCn1cc(C(=O)NCCCN2CCCC(C)C2)c(=O)c2cc(S(=O)(=O)N(C)C3CCCCC3)ccc21` (stereo not given) was tested, and the Potency was inconclusive: 3.16 µM [inhibitor, full curve].
`Cc1ccc(N2CC(NC(=O)c3ccc(S(=O)(=O)N4CCCC4)cc3)CC2=O)cc1C` (stereo not given) was tested, and the Potency was inconclusive: 6.31 µM [inhibitor, full curve, poor fit].
With `CCOc1ccc(CCNC(=O)c2sc3ncccc3c2-n2cccc2)cc1OCC` the Potency was inconclusive: 5.01 µM [inhibitor, partial curve].
With `COc1cc(NC(=O)COC(=O)CSc2ccc3ccccc3c2)c(C)cc1[N+](=O)[O-]` the Potency was inconclusive: 35.5 µM [inhibitor, partial curve].
With `CCC(C)NC(=O)Cn1c(=O)n(-c2ccc(C)c(C)c2)c(=O)c2c3c(sc21)CCCCC3` (stereo not given) the “activity change, negative = inhibition” value was inactive: -7.72%.
With `O=C(CCCSc1ccccc1)Nc1nc(-c2ccco2)c(-c2ccco2)s1` the “activity change, negative = inhibition” value was inactive: -18.6%.
With `CC1CC(C)CN(S(=O)(=O)c2ccc3c(c2)oc(=O)n3CC(=O)N2CCOCC2)C1` (stereo not given) the Potency was inconclusive: 0.708 µM [inhibitor, full curve, poor fit].
For `c1ccc(Nc2ncnc3sc4c(c23)CCC4)cc1`, the “activity change, negative = inhibition” value was inactive: -4.46%.
In the case of `Cc1ccc2c3c1C1(C(=O)N3C(C)(C)CC2C)C(C#N)=C(N)Oc2cc(O)ccc21` (stereo not given), the Potency is reported as inconclusive: 39.8 µM [inhibitor, partial curve].
For `CCN(CC)C(=O)C(=O)N/N=C/c1ccc(Cl)cc1Cl`, the Potency was inconclusive: 7.94 µM [inhibitor, single point].
`CCN(CC)CCNc1cccc2sc3ccccc3c(=O)c12` was tested, and the Potency was inconclusive: 28.2 µM [inhibitor, single point].
`Cc1ccc(C)c(C(=O)Nc2c(C(N)=O)oc3ccccc23)c1` was tested, and the Potency was inconclusive: 44.7 µM [inhibitor, partial curve].
`CC(=O)NS(=O)(=O)c1ccc(N)cc1` was tested, and the Potency was inconclusive: 100 µM [inhibitor, partial curve].
In the case of `CCc1cccc(N(C)C(N)=Nc2cccc3ccccc23)c1`, the Potency is reported as inconclusive: 200 µM [inhibitor, partial curve, poor fit].
`CCN1C(=O)[C@H]2[C@@H](c3ccc(-c4cccc(Cl)c4)cc3)N3CCCC[C@@]3(C(=O)OC)[C@H]2C1=O` was tested, and the Potency was inconclusive: 89.1 µM [inhibitor, partial curve, poor fit].
With `O=C(COc1ccc(F)cc1)c1c(O)cc(O)cc1O` the “activity change, negative = inhibition” value was inactive: 3.25%.
`Cc1cc(C)nc(NC2=NCCN2C(=S)Nc2ccc(C)c(C)c2)n1` was tested, and the Potency was inconclusive: 31.6 µM [inhibitor, single point].
For `CCOC(=O)c1c(-c2ccccc2)oc2ccc(OCC(O)CN(C)C)cc12` (stereo not given), the “activity change, negative = inhibition” value was inactive: -13.1%.
With `Cc1cc(N2CCN(C)CC2)nc2ccc(NC(=O)Nc3ccccc3Br)cc12` the Potency was inconclusive: 7.94 µM [inhibitor, partial curve].
In the case of `COc1cc(/C=C(\C#N)C(=O)NCC2CCCO2)ccc1OCCC(C)C` (stereo not given), the “activity change, negative = inhibition” value is reported as inactive: -11%.
With `CCOc1ccc(C2OC34CCCCC3C(C#N)(C#N)C2(C#N)C(=N)O4)cc1OC` (stereo not given) the Potency was inconclusive: 35.5 µM [inhibitor, partial curve, poor fit].
In the case of `O=C(C1=NN(c2ccccc2)C2C(=O)N(c3cccc(Cl)c3)C(=O)C12)c1ccccc1` (stereo not given), the Potency is reported as inconclusive: 25.1 µM [inhibitor, partial curve].
`COc1cc(-n2nnnc2SC)c(OC)cc1Cl` was tested, and the “activity change, negative = inhibition” value was inactive: -1.62%.
In the case of `COc1ccc(N2CCN(C(=O)CCc3c(C)nc4c(-c5ccccc5)c(C)nn4c3C)CC2)cc1`, the Potency is reported as inconclusive: 2.82 µM [inhibitor, full curve].
For `CN(Cc1ccc(OC(F)F)cc1)C(=O)/C=C/c1ccc(S(=O)(=O)N2CCOCC2)cc1`, the “activity change, negative = inhibition” value was inactive: -20.2%.
With `Cc1c(C(=O)Nc2ccc(F)c(F)c2)oc2ccc(S(=O)(=O)N3CCCCC3)cc12` the Potency was inconclusive: 5.01 µM [inhibitor, partial curve].
`COc1ccc2c(c1)cc(CNc1ccc(OC)c(OC)c1)c(=O)n2CC(=O)Nc1ccc(F)cc1` was tested, and the Potency was inconclusive: 50.1 µM [inhibitor, partial curve].
In the case of `C=Cc1ccc(Cn2c(=O)n(C)c(=O)c3sccc32)cc1`, the “activity change, negative = inhibition” value is reported as inactive: -15.4%.
For `CC(NC(=O)CSc1n[nH]c(-c2ccccc2Cl)n1)c1nc2ccccc2n1C` (stereo not given), the Potency was inconclusive: 100 µM [inhibitor, partial curve, poor fit].
